Source: the supplement of paper PMC5949888
Most values lie at the floor of the assay. Slopes are relative: functional sequences can read slightly below zero.

system: Saccharomyces cerevisiae PS128 hsf1 delta, HSF1(1-493) fusion; test: growth estimate (transactivation domain function in HSF1 fusion, heat-shock survival) (a.u. (slope of normalised read count over time)); higher = stronger growth at 37°C, i.e. more transactivation activity; conditions: library: random library

| Substance | growth estimate |
| --- | --- |
| FGSSWTSSEA | < -0.25 |
| LRYFYLVYNKSYQGMRPY | < -0.25 |
| LSDRYDPRCGLQFSG | < -0.25 |
| NTGYR | < -0.25 |
| ARATSQKQEGCPT | < -0.25 |
| FATLVTLPS | < -0.25 |
| YSEGGDRTLSPLPKVADSS | < -0.25 |
| LNALEVIRELTRKVSFWATP | < -0.25 |
| SVSCMFHILAV | < -0.25 |
| YPRLYDSLTPII | < -0.25 |
| HKPGSNLVIIFVGPDASARM | < -0.25 |
| PPAVEY | < -0.25 |
| EAVRPTKDLM | < -0.25 |
| HQIVDYNTALS | < -0.25 |
| GVDLRLGSTYILRALSASCK | < -0.25 |
| VLTLRADQVGKVVKTRRVGL | < -0.25 |
| ADRVLVVTLWDMVD | < -0.25 |
| TFRCATRLFYSRAASIKHDG | < -0.25 |
| HKVWLDTWASAGGFSLVWVS | < -0.25 |
| MNSLCVESIGRPHPASVVLP | < -0.25 |
| RDADEAGRHLNRVSL | < -0.25 |
| SVGGVAVTLTRHRPHLVVPG | < -0.25 |
| GVVVLLRTGSTTGYSVGEHS | < -0.25 |
| LHLNS | < -0.25 |
| GGRIHLNAG | < -0.25 |
| GTGPAWRTY | < -0.25 |

| Substance | growth estimate |
| --- | --- |
| TAA | < -0.25 |
| KLSRAETRNSLRGWPGLFRL | < -0.25 |
| ARFMGQPCNRWAIYLSATGP | < -0.25 |
| EAQTPRFPGTKWGVFC | -0.248 |
| RISESPS | -0.245 |
| SDWATRVP | < -0.25 |
| SGSFLD | < -0.25 |
| ELRNLAGSDKLRCVHTPVDA | < -0.25 |
| RPLGNKLPMERPIRCASGRM | < -0.25 |
| PELVLGGLT | < -0.25 |
| ITINAIHLMPPVISVSTVE | < -0.25 |
| LGIFANLLDSRHITYYNYSH | < -0.25 |
| WQLLLDTSKFMALQHTVVWW | < -0.25 |
| FAPNHNGPILRGVHLISVQL | < -0.25 |
| RGARFAVPRCLAYGLIAPNT | < -0.25 |
| LNADI | < -0.25 |
| YQRRRLYHTLFMNSRWGTPD | < -0.25 |
| TSGSWTADKTRGWSAWNSDG | < -0.25 |
| KLIIRASRISQSPSPLANNR | < -0.25 |
| AETTSLGG | < -0.25 |
| SRWDLVVKAVEGRGCCCARF | < -0.25 |
| FCNVSFPGSARRPGLKELDG | < -0.25 |
| SDSFVGLGQ | < -0.25 |
| LGVHAAGERGQGSPDHLLGS | < -0.25 |
| VGAGDVVSRSTLAHLANVCR | < -0.25 |
| EGERRS | < -0.25 |

| Substance | growth estimate |
| --- | --- |
| QLPKRKLTRQESWPTRIHAK | < -0.25 |
| VSEPGTRNSVQWVTFNPVGL | < -0.25 |
| YRCTRILQNSDPPSKFNIKS | < -0.25 |
| RLEGATRQYV | < -0.25 |
| RDHGRINVAVPFIWRAMTRR | < -0.25 |
| ESHALQGTR | < -0.25 |
| IWGRPCNWTAAYAIEHSGQR | < -0.25 |
| KLNWVSSEVEA | < -0.25 |
| QLAAYEGDRAYSIHCRK | < -0.25 |
| SWAP | < -0.25 |
| GEWFKRQRLALYRGVLIAGQ | -0.246 |
| QLCCRQKDLRRLVIGFN | < -0.25 |
| MMKTFAT | < -0.25 |
| AMCRDEQGPGVVFVQRTYRF | < -0.253 |
| SRAGDRFLRSPYPSLGRPCC | < -0.25 |
| WITEIFHSGSADQHIPWVSR | < -0.25 |
| PSTRWLSGSALMCEHGAAQG | < -0.25 |
| DVKAVICVYEAIDDLSCSGA | -0.239 |
| STFAVPARITMGIRRAKCHV | < -0.25 |
| PPREHRKDIRLPGDLY | < -0.25 |
| RIRIPSSLIHNLLVCS | < -0.25 |
| VLHPTVGL | < -0.25 |
| GMR | < -0.25 |
| LAVGGRLAISASLSALLGRP | -0.243 |
| CVAKYIAYQNVALGRLSSLC | < -0.25 |
| PWSVRRLAPVTTHGFLGIVS | < -0.25 |

Rewritten with each value named: entries from further up.
PSTRWLSGSALMCEHGAAQG
  growth estimate: < -0.25
PPREHRKDIRLPGDLY
  growth estimate: < -0.25

(cont.)

| Substance | growth estimate |
| --- | --- |
| VQKYQARVIRRRPVHLQEGQ | < -0.25 |
| VLCWGTAKV | < -0.25 |
| AQEVASRSRVLMCRIGTCLA | < -0.25 |
| RAHCTKCDQPGWLWKQITSW | < -0.25 |
| TPGFRRSDR | < -0.25 |
| DETKRLRIVTLCSKSDSIQA | < -0.25 |
| GTTRGGRA | < -0.25 |
| QDNFSVIVSHFYCLAFVIPQ | < -0.25 |
| RSTFTAR | < -0.25 |
| LRTPADASWRNWGIPAFHHT | -0.209 |
| HVGCWDLRQGTR | < -0.25 |
| VGFKSAFVVVLPPIGVMTDL | -0.117 |
| AAATLGCRLNTK | -0.04 |
| GPSHLGVGIPLNSLV | < -0.25 |
| NEWGALPIYFVFFVRTAQTS | < -0.25 |
| RLHYRLAWAEPL | < -0.25 |
| PEILCSCLGPKRLATTVLAL | < -0.25 |
| CDGCGTKNDSSGF | -0.248 |
| RHDQQECGPDPGVTADPQHA | < -0.25 |
| VVWSVRGARALRSAGNLAAR | < -0.25 |
| FRASGRLRASTLARGAVHLG | < -0.25 |
| SKSRRSPRRSLEDGHARCDD | < -0.25 |
| PILLTKLWVANASERLVVYW | < -0.25 |
| SGADCLCDRVSRSTGRGSHV | < -0.25 |
| RVPSFRYGRMRPSRPRDGSP | < -0.25 |
| QGYRTVCVYINLGRWVG | -0.237 |

Three entries from above, with bars between the fields.
Substance | growth estimate
AQEVASRSRVLMCRIGTCLA | < -0.25
RHDQQECGPDPGVTADPQHA | < -0.25
RVPSFRYGRMRPSRPRDGSP | < -0.25

The results go on:

| Substance | growth estimate |
| --- | --- |
| FEIFSESSGRG | -0.221 |
| CGSWIGGLTDCLHRCTVRGT | < -0.25 |
| AILGKPLPQQANQSPFLLPV | < -0.25 |
| YHMWSGLTVMCGPNHFDPYR | < -0.25 |
| TARVLESVPKFVPPETDTRP | < -0.25 |
| VRW | < -0.25 |
| RACSHHSGIKRIYSGLCSVH | < -0.25 |
| GGESRVCRASAWVQQVIKIR | < -0.25 |
| LREIRTRFGIDETCWGRREL | < -0.25 |
| SEIFMLWGATFVATWGSTIG | < -0.25 |
| PKGGFRGGPRLLFLVCKTHS | < -0.25 |
| VLGSYLIHQRTRLTSITSTR | < -0.25 |
| HAMIGRRV | < -0.25 |
| GGSGLHGHGSRLR | -0.243 |
| ARTQGSAGKVDNATSRERHY | < -0.25 |
| GSVDKVIRSLTQKLIRAIVS | < -0.25 |
| CRSGARKAAGDCV | < -0.25 |
| RTADPYTILQLEVGRPFCCQ | -0.245 |
| CPFCVENFIGYALR | < -0.25 |
| CTADSPYLRMGAQQLKCVES | < -0.25 |
| RGVVFHESREVC | < -0.25 |
| HLGHSESVDNPGG | < -0.25 |
| TSRTPLHLSVL | < -0.25 |
| VLESVFRHLHGLNRYTRPRV | < -0.25 |
| VVLGLRR | < -0.25 |
| NHP | < -0.25 |

| Substance | growth estimate |
| --- | --- |
| PGLFGRRGVKGCHATSQRSN | < -0.25 |
| YWFQAD | < -0.25 |
| LRISVAEGHDASETREDICQ | < -0.25 |
| HARTSRDHLAVRAGTCSL | < -0.25 |
| YQSDKLGGELFLAWRSSLKG | -0.245 |
| FSAQLGAWPLTSI | -0.233 |
| SGGGIPALRLGDGVWV | < -0.25 |
| YGVTPLRCFDQARIELAART | < -0.25 |
| ARVNDKE | < -0.25 |
| VRYSYPTRSPTMQRPKPVVM | < -0.25 |
| DIHSGWGVVRLTHSWLGGLR | < -0.25 |
| REGGPSELARRQSPVFGLRK | < -0.25 |
| LAVLFNRSTIAWASECEITI | < -0.25 |
| EERPLCLGTRVGFPSQ | < -0.25 |
| GYSNCG | < -0.25 |
| TQLSQAWGLQSNRYLPARF | < -0.25 |
| WLGSSVQHVIRPHRGAQSLT | -0.2 |
| IHCAYL | < -0.25 |
| PQTVLSLSLESRFCKNRHHP | < -0.25 |
| IHDRFVVSRLPTGRSV | < -0.25 |
| ESITSNWRILVLSHRSLSSP | < -0.25 |
| VRCDTLL | < -0.25 |
| HHWC | -0.246 |
| ATESVFCVKGGRNLAHRT | < -0.25 |
